Values quoted from earlier work, collected in US11390900B2, “Antimicrobial cartridges and processes for multiplexed antimicrobial susceptibility testing” (priority 2018, dated 2022).
Read-outs that look alike come from different tables or passages of the source. At least one compound was matched to its structure with a doubt left.

Legend:
patient sample microbes [1] = conditions: antimicrobial panel 2, MIC range; cited from earlier work
patient sample microbes [2] = conditions: antimicrobial panel 1, MIC range; cited from earlier work

For `CCO/N=C(\C(=O)N[C@@H]1C(=O)N2C(C(=O)[O-])=C(Sc3nc(-c4cc[n+](C)cc4)cs3)CS[C@H]12)c1nsc(N)n1` [Ceftaroline], the “Quality Control Range” value (patient sample microbes [1]) is listed as 0.12-0.5.
For `C[C@H]1COc2c(N3CCN(C)CC3)c(F)cc3c(=O)c(C(=O)O)cn1c23` [Levofloxacin], the “Quality Control Range” value (patient sample microbes [2]) is given as 0.008-0.06 and the “Quality Control Range” value (patient sample microbes [1]) is given as 0.06-0.5.
